Measurements: PubChem BioAssay AID2685 (National Center for Advancing Translational Sciences (NCATS), 2010)
Among all 320,000 compounds or so, about 2,100 (0.66%) were called active. The shares of active, inactive and inconclusive entries below differ from those in the screen. The call rests on the fitted dose curve; in most records, active means well fitted inhibition curve with a large enough effect in the signal ratio, with a control signal flat (not every such curve was filed as active); inconclusive means small, poorly fitted or top-dose-only effect, or effect the other way, or a change in a side signal; inactive means flat fitted curve, though single readings scatter; the % refers to the signal ratio. A potency beside an inconclusive call is a rough fit, not a confirmed value.

Experiment: qHTS Assay for Lipid Storage Modulators in Drosophila S3 Cells
Settings: BODIPY lipid droplet fluorescence, 18-24 h, cells fed with added oleic acid; lipid storage change, negative = inhibition: at 46.1 µM (top of the series) unless noted
Method in brief: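 Laser-scanning cytometry quantifies lipid droplet accumulation (500–530 nm total intensity; droplet/cell object ratio) in oleic acid-fed (400 uM added) Drosophila S3 cells treated with a concentration series. 20 uM Triacsin C defined 100% inhibition.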
On the % scale 0 is the no-effect control and ±100 the full control effect; potency means the concentration at half of the fitted maximal effect.

SMILES | lipid storage change, negative = inhibition | Potency
CCOC(=O)C1(Cc2ccc(OC)cc2)CCN(C(=O)c2cc(C)on2)CC1 | inconclusive: -6.39% | 
COc1ccc(N(C(=O)c2cccnc2)S(=O)(=O)c2ccc3c(c2)n(C)c(=O)n3C)cc1 |  | inconclusive: 3.66 µM [activator, single point]
Cc1c(Br)c(C(=O)NNC(=O)c2ccc(C(C)(C)C)cc2)nn1C |  | inconclusive: 0.92 µM [activator, partial curve]
Cc1[nH]c(-c2ccc(F)cc2)cc1C(=O)N1CCN(c2ccccc2F)CC1 |  | inconclusive: 25.9 µM [activator, single point]
CN(C)S(=O)(=O)c1cccc(C(=O)OCC(=O)NC2CCCc3ccccc32)c1 (stereo not drawn) | inconclusive: 7.78% | 
CCN(Cc1ccccc1)C(=O)c1c(-c2ccccc2Cl)noc1C | inconclusive: -78.5% | 
Cc1ccc(S(=O)(=O)N(C)C)cc1NC(=O)COC(=O)CNC(=O)C12CC3CC(CC(C3)C1)C2 | inconclusive: -1.95% | 
CCN(Cc1ccc(C#CCCO)cc1)CC1CCCN(CCc2cccc(F)c2)C1 (stereo not drawn) |  | inconclusive: 0.206 µM [falling, full curve, poor fit]
CCSc1nnc(NC(=O)Nc2cccc(C)c2)s1 | inactive | 
CCc1ccc2c(CN(C)Cc3ccc(OC(F)F)c(OC)c3)cc(=O)oc2c1 | inconclusive: -34.1% | 
COc1ccc(N(C(C)C(=O)Nc2ccc(S(=O)(=O)N3CCCCC3)cc2)S(C)(=O)=O)cc1 (stereo not drawn) | inconclusive: -112% | 
O=C(CSC(=S)N1CCOCC1)c1cc(Br)cc(Br)c1O | inconclusive: -32.7% | 
O=C(Nc1ccc2c(c1)OCCO2)c1ccc(Br)o1 | inconclusive: -23.2% | 
CCNc1nnc(-c2ccncc2)s1 | inconclusive: 48.4% | 
COc1cccc(CNC(=O)Cn2cc3c(n2)CCCCC3)c1 | inconclusive: -17.5% | 
COCCN1Cc2cccc(C(=O)N3CCN(c4cc(C)ccc4C)CC3)c2C1=O | inconclusive: -8.94% | 
O=C(NC1CCCCC1)C(c1ccccc1)N(C(=O)c1csnn1)C1CCCC1 (stereo not drawn) |  | inconclusive: 0.146 µM [falling, single point]
CCCc1nnc(NC(=O)CCS(=O)(=O)Cc2ccccc2)s1 |  | inconclusive: 1.16 µM [activator, single point]
CCOC(=O)c1c[nH]n(-c2ccccc2)c1=O | inconclusive: -10.7% | 
C=CCOc1ccc(CNc2ccc3[nH]c(=O)[nH]c3c2)cc1OC |  | inconclusive: 0.461 µM [falling, partial curve]
C/C(=N\NC(=O)c1c(C)nc2ccccn12)c1ccc(O)cc1O |  | active: 5.8 µM
COc1ccc(-n2c(O)c(/C=N/NS(=O)(=O)c3cccc([N+](=O)[O-])c3)c3ccccc3c2=O)cc1OC |  | active: 16.4 µM
CCC(C)(C)C1CCc2[nH]nc(C(=O)NCCN3CCOCC3)c2C1 (stereo not drawn) |  | inconclusive: 29.1 µM [activator, single point]
O=C(CON=C1c2ccccc2-c2ccccc21)NC12CC3CC(CC(C3)C1)C2 |  | inconclusive: 29.1 µM [falling, single point]
COc1ccccc1NC(=O)C(=O)NCCCN1CCCC1=O | inconclusive | 

SMILES | lipid storage change, negative = inhibition | Potency
Clc1ccc(SCc2cc(N3CCOCC3)nc(-c3ccccn3)n2)cc1 |  | inconclusive: 0.103 µM [rising, full curve]
O=C(O)c1ccc2c(c1)C(=O)/C(=C\c1ccco1)C2=O |  | inconclusive: 3.66 µM [cytotoxic, partial curve]
CC(C)(C)NC(=O)/C(=C\c1ccccc1F)NC(=O)c1ccc([N+](=O)[O-])cc1 | inconclusive: 7.46% | 
CCOc1ccccc1-n1nnnc1SCc1nc2ccccc2s1 | inconclusive: -14.4% | 
O=C(c1ccco1)N1CCN(Cc2cccc(F)c2)CC1 |  | inconclusive: 29.1 µM [falling, single point]
CCCNC(=O)COC(=O)c1ccccc1C(=O)c1ccc(Cl)c([N+](=O)[O-])c1 | inconclusive: -11.1% | 
COc1cc(C(=O)OCC(=O)NC23CC4CC(CC(C4)C2)C3)cc(OC)c1OC | inconclusive | 
COc1ccc(NC(=O)c2cc3ccccc3oc2=O)c(OC)c1 |  | inconclusive: 5.8 µM [falling, partial curve]
CCN(CC)S(=O)(=O)c1ccc(O)c(NC(=O)c2cc(-c3cc(OC)c(OC)c(OC)c3)nc3ccccc23)c1 |  | inconclusive: 6.51 µM [activator, partial curve]
N#C/C(=C\c1ccccc1[N+](=O)[O-])c1nc(C2CC2)cs1 | inconclusive: 22.7% | 
COC(=O)c1sc(S(=O)(=O)N2CCN(c3ccc(OC)cc3)CC2)c(C(=O)OC)c1C | inconclusive: 23.3% | 
Cc1[nH]n(-c2ccccc2)c(=O)c1-c1cccc(Cl)c1 | inconclusive: -25.7% | 
O=C(CSCc1ccccc1)N1CCN(S(=O)(=O)c2ccc(F)cc2)CC1 | inconclusive: 0.901% | 
Cc1ccccc1-n1ncc2c1CC(C)(C)CC2NC(=O)CCN1Cc2ccccc2C1=O (stereo not drawn) |  | inconclusive: 29.1 µM [activator, single point]
O=C(NCc1ccccn1)c1ccc(CS(=O)(=O)Cc2ccc(Cl)cc2)o1 |  | inconclusive: 1.64 µM [activator, partial curve]
Cc1nc(Oc2ccccc2)c2ccsc2n1 | inconclusive: 11.7% | 
CCOC(=O)c1c(C)oc2ccc(OC(=O)N3CCOCC3)cc12 | inconclusive: 36.2% | 
COc1c(C)cc(Br)cc1C(=O)Nc1ccccc1N1CCN(C(=O)c2ccccc2)CC1 | inconclusive: 102% | 
COc1ccc(-c2csc(C)n2)cc1OC | inconclusive: -0.667% | 
Cc1nc(C)n(CCNS(=O)(=O)c2ccccc2)n1 | inconclusive: -21.9% | 
O=C(C(Cl)Cl)N1CCN(Cc2ccc3c(c2)OCO3)CC1 |  | inconclusive: 29.1 µM [activator, single point]
CCCOc1ccc(N2CC(C(=O)NCCc3ccc(OC)c(OC)c3)CC2=O)cc1 (stereo not drawn) |  | inconclusive: 29.1 µM [falling, single point]
CC1CCCC(C)N1CCCNC(=O)Cn1ncc2c3ccccc3n(C)c2c1=O (stereo not drawn) |  | inconclusive: 29.1 µM [activator, single point]
CCNC(=O)C1=C(O)c2sccc2N(C)S1(=O)=O | inconclusive: -59.1% | 
Cc1cc(C)nc(NS(=O)(=O)c2ccc(N/C=C\C(=O)c3ccc(Cl)cc3)cc2)n1 | inconclusive: -2.33% | 

Random excerpt: 4 compounds from above, in no set order.
SMILES | lipid storage change, negative = inhibition | Potency
N#C/C(=C\c1ccccc1[N+](=O)[O-])c1nc(C2CC2)cs1 | inconclusive: 22.7% | 
O=C(CSCc1ccccc1)N1CCN(S(=O)(=O)c2ccc(F)cc2)CC1 | inconclusive: 0.901% | 
CCOc1ccccc1-n1nnnc1SCc1nc2ccccc2s1 | inconclusive: -14.4% | 
O=C(C(Cl)Cl)N1CCN(Cc2ccc3c(c2)OCO3)CC1 |  | inconclusive: 29.1 µM [activator, single point]

(list continues)

SMILES | lipid storage change, negative = inhibition | Potency
O=C(c1ccccc1)c1ccc2n1CCC2C(=O)O (stereo not drawn) | inconclusive: -2.51% | 
COC(=O)C1(C)NC(c2ccccc2F)C2C(=O)N(c3ccccc3)C(=O)C21 (stereo not drawn) | inconclusive: 17.1% | 
CCOC(=O)C1C(=O)NC(N2CCOCC2)=NC1c1ccco1 (stereo not drawn) | inconclusive: -26.7% | 
O=S(=O)(Nc1ccc2c(c1)nc1n2CCOC1)c1ccc(Cl)cc1 |  | inconclusive: 5.17 µM [activator, partial curve]
Nc1ncnc(NNC(=O)CNC(=O)c2c(F)cccc2Cl)c1[N+](=O)[O-] |  | inconclusive: 0.0651 µM [cytotoxic, full curve, poor fit]
COc1c(Br)cc2c(C)c(C(=O)N3CCOCC3)oc2c1Br |  | inconclusive: 2.31 µM [activator, partial curve]
Cc1cc2nc(CSc3ccc(Cl)cc3)cc(=O)n2[nH]1 | inconclusive: -16.7% [at 9.22 µM] | 
CN(c1ccccc1C(=O)Nc1ccc(F)c(Cl)c1)S(C)(=O)=O | inconclusive: 73.5% | 
CN1CCN(Cc2c(O)ccc3c(-c4ccccc4)cc(=O)oc23)CC1 | inconclusive: -2.1% | 
N#C/C(=C\c1ccc(Cl)c([N+](=O)[O-])c1)c1ccccn1 |  | inconclusive: 22.4 µM [falling, single point]
CCCN(CC(=O)Nc1ccccc1OC)C(=O)CCCN1C(=O)c2ccccc2C1=O | inconclusive: 1.77% | 
O=[N+]([O-])c1ccc(N2CCN(S(=O)(=O)c3ccccc3)CC2)cc1NCCN1CCOCC1 |  | inconclusive: 0.366 µM [rising, partial curve]
COc1cccc2cc(CC(=O)c3cc(C)ccc3C)c(=O)oc12 |  | inconclusive: 14.6 µM [activator, single point]
Cc1cc(C)c(S(=O)(=O)N2CCOC2CNC(=O)C(=O)NCCN2CCOCC2)c(C)c1 (stereo not drawn) | inconclusive: -30.8% [at 0.00295 µM] | 
COc1ccccc1N1CCN(CC(=O)c2c(C)[nH]c3cc(C)ccc23)CC1 |  | inconclusive: 0.731 µM [activator, partial curve]
C=CCn1cc(/C=N/N2C(=O)C3C4C=CC(C4)C3C2=O)c2ccccc21 (stereo not drawn) | inconclusive: -40.4% [at 0.369 µM] | 
Cc1ccc(CN2C(=O)C(C)Oc3ccccc32)cc1 (stereo not drawn) | inconclusive: 38.7% | 
O=C(c1ccco1)N1CCN(S(=O)(=O)c2ccccc2[N+](=O)[O-])CC1 | inconclusive: 18.2% [at 9.22 µM] | 
Cn1cccc1CC(=O)N/N=C/c1ccc(C(C)(C)C)cc1 | inconclusive: -10.2% | 
O=c1oc2cc(O[C@@H]3OC[C@@H](O)[C@H](O)[C@H]3O)ccc2c2ccccc12 | inconclusive: 10.4% | 
N#Cc1ccc(NC(=O)c2sc3cc(C(F)(F)F)cnc3c2-c2cccs2)cc1 |  | inconclusive: 16.4 µM [activator, single point]
O=S1(=O)N=C(SCCO)c2ccccc21 |  | inconclusive: 29.1 µM [falling, single point]
CCOC(=O)N/N=C\c1ccc([N+](=O)[O-])o1 |  | inconclusive: 13 µM [falling, partial curve, poor fit]
